Results: patent US20050191294A1, “Compositions and methods of use of targeting peptides for diagnosis and therapy” (Board of Regents, The University of Texas System, priority 2003, published 2005)

Assays:
[1] = target: recombinant GRP78 (Stressgen); assay: phage binding to proteins immobilized on microtiter wells
[2] = target: recombinant GRP78 (Stressgen); assay: discussion of the in vitro phage binding assay

| Binder | binding [1] | binding [2] |
| --- | --- | --- |
| WIFPWIQL (peptide, not shown: large carriers) [WIFPWIQL (SEQ ID NO:6)-phage] | binds | binds |
| WDLAWMFRLPVG (peptide, not shown: large carriers) [… (SEQ ID NO:7)-phage] | binds | binds |

No constants are given. Whether binding was seen depends on the method and setting. Binding can be weak; no strength is given.
